One compound from patent US8492349B2, “Analgesia with minimal tolerance and dependence by a mu opioid receptor agonist that also binds filamin A” (Pain Therapeutics, Inc., priority 2007, dated 2013) can be followed below.

The experiment has as its system MOR-Gs coupling. Description: Acute morphine-induced MOR Go-to-Gs coupling switch in organotypic striatal slice cultures. Particulars: 100 μM. Type of experiment: cell-based, rat.

For `CN1CC[C@]23c4c5ccc(O)c4O[C@H]2[C@@H](O)C=C[C@H]3[C@H]1C5` [morphine], the “Go-to-Gs coupling switch by MOR, acute exposure” value is, setting by setting: (5 and 15 minutes of exposure) “caused a complete Go-to-Gs coupling switch”; (after 60 minutes of exposure) “no further Gs coupling was detected”.
